In the supplement of paper PMC12067093, “Discovery and optimisation of a covalent ligand for TRIM25 and its application to targeted protein ubiquitination” (Chemical Science, 2025):
Some of the results follow.

Chains of the proteins cited; added tags and fusions are not shown. Lines headed by an entry give the natural chain unless they say otherwise; changes in a name come on top.
UniProt Q9UNH7: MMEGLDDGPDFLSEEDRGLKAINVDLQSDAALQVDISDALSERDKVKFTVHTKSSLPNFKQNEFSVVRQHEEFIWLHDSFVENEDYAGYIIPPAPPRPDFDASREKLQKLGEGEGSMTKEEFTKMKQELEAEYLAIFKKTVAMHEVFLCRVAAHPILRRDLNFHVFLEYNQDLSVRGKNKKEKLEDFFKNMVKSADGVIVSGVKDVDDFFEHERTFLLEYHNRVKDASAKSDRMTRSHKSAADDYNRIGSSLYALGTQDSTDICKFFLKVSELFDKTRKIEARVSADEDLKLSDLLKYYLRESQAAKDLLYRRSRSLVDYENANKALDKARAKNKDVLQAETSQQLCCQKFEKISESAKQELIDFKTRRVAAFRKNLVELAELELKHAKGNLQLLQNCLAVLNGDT
UniProt Q7Z614: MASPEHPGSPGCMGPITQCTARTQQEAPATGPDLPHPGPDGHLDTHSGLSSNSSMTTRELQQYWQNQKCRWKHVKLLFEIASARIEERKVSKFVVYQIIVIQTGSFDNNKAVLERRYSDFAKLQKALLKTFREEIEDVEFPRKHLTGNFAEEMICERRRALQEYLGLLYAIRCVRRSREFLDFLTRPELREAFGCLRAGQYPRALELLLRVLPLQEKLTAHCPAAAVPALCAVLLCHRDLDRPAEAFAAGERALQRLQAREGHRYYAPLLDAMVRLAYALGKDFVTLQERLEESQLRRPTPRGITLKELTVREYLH
UniProt P19623: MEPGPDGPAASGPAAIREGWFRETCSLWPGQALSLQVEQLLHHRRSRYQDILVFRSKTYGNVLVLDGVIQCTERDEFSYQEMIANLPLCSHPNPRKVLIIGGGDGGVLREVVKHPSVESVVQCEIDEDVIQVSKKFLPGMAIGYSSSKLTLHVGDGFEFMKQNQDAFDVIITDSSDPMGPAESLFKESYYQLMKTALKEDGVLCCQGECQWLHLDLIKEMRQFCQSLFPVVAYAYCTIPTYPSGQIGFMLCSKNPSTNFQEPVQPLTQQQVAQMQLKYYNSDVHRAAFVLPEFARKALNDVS
UniProt O15270: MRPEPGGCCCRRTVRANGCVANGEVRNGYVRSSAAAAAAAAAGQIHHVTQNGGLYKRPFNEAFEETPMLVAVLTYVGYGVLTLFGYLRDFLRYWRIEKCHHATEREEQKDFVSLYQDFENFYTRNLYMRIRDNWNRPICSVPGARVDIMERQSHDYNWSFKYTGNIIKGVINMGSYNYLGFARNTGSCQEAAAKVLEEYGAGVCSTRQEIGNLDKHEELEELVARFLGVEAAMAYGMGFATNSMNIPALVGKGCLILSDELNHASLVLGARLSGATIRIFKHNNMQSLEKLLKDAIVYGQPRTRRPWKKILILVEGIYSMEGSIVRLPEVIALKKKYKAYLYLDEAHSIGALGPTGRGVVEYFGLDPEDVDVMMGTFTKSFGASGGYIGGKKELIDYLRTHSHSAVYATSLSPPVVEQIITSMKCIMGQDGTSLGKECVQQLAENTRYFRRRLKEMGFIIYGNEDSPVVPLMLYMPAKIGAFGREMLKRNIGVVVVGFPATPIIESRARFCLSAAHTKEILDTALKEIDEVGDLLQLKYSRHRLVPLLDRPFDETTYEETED
UniProt Q9NUQ6: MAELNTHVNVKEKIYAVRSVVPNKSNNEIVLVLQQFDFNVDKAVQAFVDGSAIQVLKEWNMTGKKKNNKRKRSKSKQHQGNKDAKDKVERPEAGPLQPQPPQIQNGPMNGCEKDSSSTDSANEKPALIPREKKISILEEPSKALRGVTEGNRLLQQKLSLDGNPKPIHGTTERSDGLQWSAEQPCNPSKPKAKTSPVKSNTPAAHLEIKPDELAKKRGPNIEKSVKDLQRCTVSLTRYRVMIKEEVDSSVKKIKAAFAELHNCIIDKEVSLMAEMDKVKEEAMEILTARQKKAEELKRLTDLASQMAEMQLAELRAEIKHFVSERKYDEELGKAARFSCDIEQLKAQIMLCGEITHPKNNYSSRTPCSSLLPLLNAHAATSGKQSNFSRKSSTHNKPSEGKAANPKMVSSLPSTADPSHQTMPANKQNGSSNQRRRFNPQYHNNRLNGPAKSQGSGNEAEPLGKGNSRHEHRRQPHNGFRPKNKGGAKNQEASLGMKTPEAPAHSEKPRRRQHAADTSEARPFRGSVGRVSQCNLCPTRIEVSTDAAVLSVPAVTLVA

Compound: Cc1cc(ccc1-c1ccccc1)C(=O)N1CCCN(CC1)C(=O)CCl [compound 10]
Assay: probe-labelled cysteine peptide fold change vs DMSO (competition) (log2 fold change); higher = less target engagement (more negative = stronger competition)
Conditions: THP-1, incubation time: 4 h
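Further: competitive profiling in live THP-1 cells: cysteine peptides tagged with an iodoacetamide desthiobiotin (IA-DTB) probe, intensity after compound treatment relative to DMSO-treated cells.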

| Target | probe-labelled cysteine peptide fold change (10 µM) | probe-labelled cysteine peptide fold change (50 µM) |
| --- | --- | --- |
| SNX6_Q9UNH7_149_TVAMHEVFLCR (UniProt Q9UNH7) | -0.37 | -1.4 |
| SNX27_Q96L92_432+434_TCEGYNEIIFPHCACDSR (UniProt Q96L92) | 0.629 | 0.504 |
| SNX20_Q7Z614_155_HLTGNFAEEMICER (UniProt Q7Z614) | -0.139 | -0.38 |
| SRM_P19623_205+209_EDGVLCCQGECQWLHLDLIK (UniProt P19623) | 0.0892 | -0.00622 |
| SPTLC2_O15270_204_VLEEYGAGVCSTR (UniProt O15270) | -0.0137 | 0.212 |
| SPATS2L_Q9NUQ6_111_DKVERPEAGPLQPQPPQIQNGPMNGCEK (UniProt Q9NUQ6) | -0.0498 | -0.417 |
